Measurements published in paper PMC12008848.
Results are given in words; binding and its absence hold for the method and conditions named. In cells and extracts the contact can be indirect. Binding can be weak; no strength is given. Tags and fused reporters may be left off the sequences shown.

Biological target: Flag-TRIM27-ΔR (TRIM27 lacking the RING domain)
Assay: co-IP; 293T cells transfected with Myc-TAB2 and Flag-TRIM27 or Flag-TRIM27-ΔR; lysates immunoprecipitated with anti-Flag, blotted with anti-Flag or anti-Myc; extraction buffer 50 mM Tris-HCl pH 8.0, 150 mM NaCl, 1 mM EDTA, 0.5% Nonidet P40

B1: Myc-TAB2 (TAK1 binding protein 2) (protein, UniProt Q9NYJ8 1-693)
chain: MAQGSHQIDFQVLHDLRQKFPEVPEVVVSRCMLQNNNNLDACCAVLSQESTRYLYGEGDLNFSDDSGISGLRNHMTSLNLDLQSQNIYHHGREGSRMNGSRTLTHSISDGQLQGGQSNSELFQQEPQTAPAQVPQGFNVFGMSSSSGASNSAPHLGFHLGSKGTSSLSQQTPRFNPIMVTLAPNIQTGRNTPTSLHIHGVPPPVLNSPQGNSIYIRPYITTPGGTTRQTQQHSGWVSQFNPMNPQQVYQPSQPGPWTTCPASNPLSHTSSQQPNQQGHQTSHVYMPISSPTTSQPPTIHSSGSSQSSAHSQYNIQNISTGPRKNQIEIKLEPPQRNNSSKLRSSGPRTSSTSSSVNSQTLNRNQPTVYIAASPPNTDELMSRSQPKVYISANAATGDEQVMRNQPTLFISTNSGASAASRNMSGQVSMGPAFIHHHPPKSRAIGNNSATSPRVVVTQPNTKYTFKITVSPNKPPAVSPGVVSPTFELTNLLNHPDHYVETENIQHLTDPTLAHVDRISETRKLSMGSDDAAYTQALLVHQKARMERLQRELEIQKKKLDKLKSEVNEMENNLTRRRLKRSNSISQIPSLEEMQQLRSCNRQLQIDIDCLTKEIDLFQARGPHFNPSAIHNFYDNIGFVGPVPPKPKDQRSIIKTPKTQDTEDDEGAQWNCTACTFLNHPALIRCEQCEMPRHF
For B1, the binding was “binds”.
